Data as given in PubChem BioAssay AID1508597 (Cure First, 2020)
Assay: 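Knock-downs altering ovarian cancer cell survival with or without PARP inhibitor rucaparib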 (primary screen). System: human ovarian carcinoma lines grown from tumours: OCI-P5x (papillary serous) and OCI-C5x (clear cell). Knock-down reagent: siRNA pool against human genes, 1.25 pmol siRNA per well. Timing: 72 h or 96 h, depending on the cell culture. Conditions: rucaparib 20 µM (about IC30) or vehicle, present until read-out. Rucaparib or vehicle: Rucaparib. Cell line: OCI-P5x (serous). Measured: 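Luminescent ATP-based viability assay read 72 or 96 h after transfection, depending on culture, given as normalised percent viability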. Reading the numbers: viability, normalised: higher = more viable cells remaining. Active means: 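a well counts as a hit if its normalised viability is under 80 percent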. Calls: active = viability under 80%; inactive = viability 80% or more.
Shown is an unselected part of the about 2,100 reagents, under one of the conditions tested. 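Calls flag viability under 80% in either arm, not effects specific to rucaparib; the reference for percent is not stated.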 Some reagents were tested in more than one well and are listed for each. No sequences are given here. The record does not give: the 100% reference.

gene | technical replicate | viability, normalised (%) | Call
DRD1 (GeneID 1812) | 1 | 59.4 | active
DRD1 (GeneID 1812) | 2 | 68.4 | active
DRD1 (GeneID 1812) | 3 | 65.2 | active
GRK3 (GeneID 157) | 1 | 82.3 | inactive
GRK3 (GeneID 157) | 1 | 86.4 | inactive
GRK3 (GeneID 157) | 2 | 76.1 | active
GRK3 (GeneID 157) | 2 | 111 | inactive
GRK3 (GeneID 157) | 3 | 92.2 | inactive
GRK3 (GeneID 157) | 3 | 91.7 | inactive
ELANE (GeneID 1991) | 1 | 59.5 | active
ELANE (GeneID 1991) | 2 | 47.7 | active
ELANE (GeneID 1991) | 3 | 80.5 | inactive
NEK1 (GeneID 4750) | 1 | 83.4 | inactive
NEK1 (GeneID 4750) | 2 | 79.7 | active
NEK1 (GeneID 4750) | 3 | 61.9 | active
UNC93B1 (GeneID 81622) | 1 | 78.7 | active
UNC93B1 (GeneID 81622) | 2 | 66.1 | active
UNC93B1 (GeneID 81622) | 3 | 58.4 | active
MUS81 (GeneID 80198) | 1 | 111 | inactive
MUS81 (GeneID 80198) | 2 | 82.3 | inactive
MUS81 (GeneID 80198) | 3 | 64.6 | active
NME2 (GeneID 4831) | 1 | 34.8 | active
NME2 (GeneID 4831) | 2 | 33.7 | active
NME2 (GeneID 4831) | 3 | 62.3 | active
